Test results: patent US4921953A, “Cephalosporin derivatives” (Taisho Pharmaceutical Co., Ltd., priority 1988, dated 1990)

Assay: in vivo
Parameters: species or system male Japanese native strain white rabbits
Details: blood, rabbit, oral, 20 mg/kg suspended in 5% gum arabic, bioassay (Bacillus luteus S1101)
Protocol: Three male Japanese native strain white rabbits weighing 2.50 to 3.15 kg for each group were administered orally with the test compounds, and the change of the concentration of the compound in blood was measured.
Dosage of the test compound: 20 mg/kg (suspended in 5% gum arabic).
Quantitative method: Bioassy method (test bacterium: Bacillus luteus S1101).

## CC1=C(C(=O)O)N2C(=O)[C@@H](NC(=O)[C@H](N)c3ccccc3)[C@H]2SC1 [D, Cephalexin, reference compound]
Four Hours after administration
  concentration at 4 h: 600 ng/mL
One Hour after administration
  concentration at 1 h: 5500 ng/mL
Two Hours after administration
  concentration at 2 h: 2900 ng/mL
